These are yes or no findings as the source states them, for the method shown. Some results given as binding are weak or reduced against the parent protein; the word gives no strength.
Molecular target: IL-17-receptor (IL-17R)-Fc fusion, commercially available (UniProt Q96F46)
Test: ELISA; competition ELISA; IL-17R-Fc coated on Maxisorp plates at 0.6 ug/ml; different concentrations of the Fc fusions pre-incubated with 2.5 nM biotinylated IL-17A and added to the wells; bound IL-17A detected with streptavidin-HRP; both purified

The chains behind the UniProt entries cited, without tags or fusion partners. Residues count along the entry.
UniProt Q96F46, residues 33-320: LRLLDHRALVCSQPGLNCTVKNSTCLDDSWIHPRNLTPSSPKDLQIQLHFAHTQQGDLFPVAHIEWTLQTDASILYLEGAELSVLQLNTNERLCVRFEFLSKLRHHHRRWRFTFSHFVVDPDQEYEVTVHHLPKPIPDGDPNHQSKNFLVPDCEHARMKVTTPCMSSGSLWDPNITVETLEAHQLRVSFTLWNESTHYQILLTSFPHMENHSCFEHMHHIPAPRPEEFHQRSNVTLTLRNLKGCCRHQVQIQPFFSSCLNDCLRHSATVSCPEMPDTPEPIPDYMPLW
UniProt Q16552, residues 24-155: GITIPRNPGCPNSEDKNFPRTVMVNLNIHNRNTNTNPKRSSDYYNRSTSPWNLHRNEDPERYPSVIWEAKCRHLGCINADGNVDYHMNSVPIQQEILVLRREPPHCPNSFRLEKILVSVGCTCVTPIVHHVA

binding: binds
Substance: biotinylated human interleukin-17A (IL-17A) (from UniProt Q16552 24-155)

Reference: paper PMC4022905
